Where a name gives a salt, the structure may show the parent alone. The list shows a part of the results. Hit calls seldom repeat between salt and free forms of one compound.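 In K562 cells expressing nanoluciferase-fused kinases, luminescence was recorded at 4 h intervals between 2 and 18 h, normalized as percent of control with DMSO at 100% and a positive control at 0%. A significant (2 sigma) signal drop marks a time point as decreased. The authors' rule for a hit is not shown and takes in more than the number of time points.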
Experiments:
Experiment in all cases: kinase-Nluc reporter destabilization hit call (1 = scored as downregulated) (binary); higher = compound decreases kinase abundance
Conditions in all cases: K562; 2-18 h
ABL1 = ABL1 (UniProt P00519)
AKT1 = AKT1 (UniProt P31749)
ALK = ALK (UniProt Q9UM73)
ARAF = ARAF (UniProt P10398)
AURKA = AURKA (UniProt O14965)
AURKB = AURKB (UniProt Q96GD4)
AURKC = AURKC (UniProt Q9UQB9)
BLK = BLK (UniProt P51451)
BMX = BMX (UniProt P51813)
BRAF = BRAF (UniProt P15056)
BRAF_V600E = test system: BRAF_V600E
BTK = BTK (UniProt Q06187)
CAMK2A = CAMK2A (UniProt Q9UQM7)
CAMK2G = CAMK2G (UniProt Q13555)
CDK10 = CDK10 (UniProt Q15131)
CDK2 = CDK2 (UniProt P24941)
CDK3 = CDK3 (UniProt Q00526)
CDK4 = CDK4 (UniProt P11802)
CDK5 = CDK5 (UniProt Q00535)
CDK6 = CDK6 (UniProt Q00534)

Chains of the proteins cited; added tags and fusions are not shown. Lines headed by an entry give the natural chain unless they say otherwise; changes in a name come on top.
UniProt P00519, whole entry: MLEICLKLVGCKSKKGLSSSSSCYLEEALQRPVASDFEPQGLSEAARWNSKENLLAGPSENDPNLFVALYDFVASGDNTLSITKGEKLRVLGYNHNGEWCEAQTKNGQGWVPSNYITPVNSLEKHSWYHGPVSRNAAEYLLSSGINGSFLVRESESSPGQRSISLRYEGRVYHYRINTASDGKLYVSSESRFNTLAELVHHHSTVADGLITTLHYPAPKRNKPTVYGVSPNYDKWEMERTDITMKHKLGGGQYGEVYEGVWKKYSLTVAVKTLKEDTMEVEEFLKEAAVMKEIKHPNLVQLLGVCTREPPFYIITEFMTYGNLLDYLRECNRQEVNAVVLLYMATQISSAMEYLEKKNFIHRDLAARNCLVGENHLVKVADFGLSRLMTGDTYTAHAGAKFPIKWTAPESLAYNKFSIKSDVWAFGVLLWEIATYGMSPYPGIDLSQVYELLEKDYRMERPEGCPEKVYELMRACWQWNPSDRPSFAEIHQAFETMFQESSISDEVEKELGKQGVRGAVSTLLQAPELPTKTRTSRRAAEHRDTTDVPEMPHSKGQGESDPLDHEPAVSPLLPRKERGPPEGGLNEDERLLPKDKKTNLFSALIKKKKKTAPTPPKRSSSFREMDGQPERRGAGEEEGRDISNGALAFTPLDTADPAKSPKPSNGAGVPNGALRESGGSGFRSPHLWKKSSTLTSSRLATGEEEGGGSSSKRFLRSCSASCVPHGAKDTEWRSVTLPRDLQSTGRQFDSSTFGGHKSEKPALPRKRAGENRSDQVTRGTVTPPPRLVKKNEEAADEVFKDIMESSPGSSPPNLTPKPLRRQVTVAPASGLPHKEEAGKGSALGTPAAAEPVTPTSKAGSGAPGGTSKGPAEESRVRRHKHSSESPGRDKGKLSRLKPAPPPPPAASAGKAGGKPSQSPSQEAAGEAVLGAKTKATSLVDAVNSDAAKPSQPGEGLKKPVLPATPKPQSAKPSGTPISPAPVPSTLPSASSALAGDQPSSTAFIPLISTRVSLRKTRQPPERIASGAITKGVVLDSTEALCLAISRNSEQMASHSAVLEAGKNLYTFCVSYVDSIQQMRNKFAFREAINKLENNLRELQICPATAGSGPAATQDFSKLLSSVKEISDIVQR
UniProt Q9UM73: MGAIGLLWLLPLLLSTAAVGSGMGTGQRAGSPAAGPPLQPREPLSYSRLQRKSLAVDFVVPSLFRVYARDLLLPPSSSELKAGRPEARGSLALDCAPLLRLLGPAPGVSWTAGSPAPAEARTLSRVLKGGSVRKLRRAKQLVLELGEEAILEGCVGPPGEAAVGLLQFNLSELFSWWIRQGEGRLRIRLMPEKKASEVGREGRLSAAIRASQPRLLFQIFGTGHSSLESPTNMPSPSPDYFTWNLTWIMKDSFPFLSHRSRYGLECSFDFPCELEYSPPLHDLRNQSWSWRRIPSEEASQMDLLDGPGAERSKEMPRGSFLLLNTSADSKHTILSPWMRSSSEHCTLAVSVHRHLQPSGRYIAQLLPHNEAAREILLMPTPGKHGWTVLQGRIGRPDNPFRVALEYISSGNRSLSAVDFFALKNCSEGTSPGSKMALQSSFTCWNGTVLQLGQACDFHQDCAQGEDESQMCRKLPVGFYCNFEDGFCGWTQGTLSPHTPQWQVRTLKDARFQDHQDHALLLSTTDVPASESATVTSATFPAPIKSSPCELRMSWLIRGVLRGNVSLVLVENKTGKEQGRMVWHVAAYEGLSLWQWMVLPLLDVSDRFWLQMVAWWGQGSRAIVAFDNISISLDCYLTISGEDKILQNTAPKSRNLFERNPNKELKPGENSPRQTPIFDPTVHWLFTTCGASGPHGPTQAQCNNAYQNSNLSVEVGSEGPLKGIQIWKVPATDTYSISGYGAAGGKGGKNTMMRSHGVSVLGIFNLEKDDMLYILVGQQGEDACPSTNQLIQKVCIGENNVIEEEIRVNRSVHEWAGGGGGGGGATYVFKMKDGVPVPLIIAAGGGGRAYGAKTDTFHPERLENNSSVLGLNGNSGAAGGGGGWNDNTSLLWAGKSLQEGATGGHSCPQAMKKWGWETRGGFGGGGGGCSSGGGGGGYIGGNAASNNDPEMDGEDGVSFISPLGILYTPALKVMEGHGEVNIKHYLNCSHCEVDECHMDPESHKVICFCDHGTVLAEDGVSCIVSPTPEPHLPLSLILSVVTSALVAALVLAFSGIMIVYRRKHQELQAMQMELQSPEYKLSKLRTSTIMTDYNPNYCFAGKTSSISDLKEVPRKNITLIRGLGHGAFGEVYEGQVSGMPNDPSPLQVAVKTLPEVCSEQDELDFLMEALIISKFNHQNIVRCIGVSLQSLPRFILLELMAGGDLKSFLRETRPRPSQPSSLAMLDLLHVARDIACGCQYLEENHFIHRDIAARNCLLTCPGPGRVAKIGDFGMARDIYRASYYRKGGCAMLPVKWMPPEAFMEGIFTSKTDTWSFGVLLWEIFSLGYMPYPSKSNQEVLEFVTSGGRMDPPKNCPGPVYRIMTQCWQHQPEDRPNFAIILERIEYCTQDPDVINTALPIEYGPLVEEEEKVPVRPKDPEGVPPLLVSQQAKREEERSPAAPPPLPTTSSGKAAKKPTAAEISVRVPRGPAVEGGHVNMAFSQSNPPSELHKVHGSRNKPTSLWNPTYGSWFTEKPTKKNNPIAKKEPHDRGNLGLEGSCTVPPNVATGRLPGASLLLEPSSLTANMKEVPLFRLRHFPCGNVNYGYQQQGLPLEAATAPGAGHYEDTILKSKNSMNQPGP
UniProt P10398: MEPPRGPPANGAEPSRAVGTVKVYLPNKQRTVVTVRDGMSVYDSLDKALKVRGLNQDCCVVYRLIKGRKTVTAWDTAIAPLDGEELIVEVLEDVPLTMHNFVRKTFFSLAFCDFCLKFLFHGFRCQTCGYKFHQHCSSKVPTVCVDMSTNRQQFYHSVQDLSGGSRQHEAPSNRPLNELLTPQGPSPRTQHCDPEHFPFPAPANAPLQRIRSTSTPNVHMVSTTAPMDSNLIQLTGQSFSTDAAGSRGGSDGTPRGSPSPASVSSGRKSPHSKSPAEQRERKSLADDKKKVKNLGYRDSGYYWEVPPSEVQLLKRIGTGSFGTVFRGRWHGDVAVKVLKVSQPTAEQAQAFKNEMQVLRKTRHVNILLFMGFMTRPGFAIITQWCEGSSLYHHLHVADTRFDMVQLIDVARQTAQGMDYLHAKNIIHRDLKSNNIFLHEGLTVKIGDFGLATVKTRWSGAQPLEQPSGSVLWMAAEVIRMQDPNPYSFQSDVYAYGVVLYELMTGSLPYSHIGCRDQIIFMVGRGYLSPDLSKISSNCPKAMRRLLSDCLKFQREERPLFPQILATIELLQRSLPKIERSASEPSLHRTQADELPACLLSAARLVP
UniProt O14965: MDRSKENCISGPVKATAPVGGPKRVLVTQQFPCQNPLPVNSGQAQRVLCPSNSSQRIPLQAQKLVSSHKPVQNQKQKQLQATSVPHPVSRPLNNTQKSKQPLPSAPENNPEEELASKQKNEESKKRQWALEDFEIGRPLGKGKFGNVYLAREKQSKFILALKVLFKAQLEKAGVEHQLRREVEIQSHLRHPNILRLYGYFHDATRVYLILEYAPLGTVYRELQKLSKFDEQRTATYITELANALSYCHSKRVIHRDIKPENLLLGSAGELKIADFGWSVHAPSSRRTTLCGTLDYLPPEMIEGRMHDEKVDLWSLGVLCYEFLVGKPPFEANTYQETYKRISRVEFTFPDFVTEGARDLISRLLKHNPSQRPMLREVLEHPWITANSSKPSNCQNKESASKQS
UniProt P51451: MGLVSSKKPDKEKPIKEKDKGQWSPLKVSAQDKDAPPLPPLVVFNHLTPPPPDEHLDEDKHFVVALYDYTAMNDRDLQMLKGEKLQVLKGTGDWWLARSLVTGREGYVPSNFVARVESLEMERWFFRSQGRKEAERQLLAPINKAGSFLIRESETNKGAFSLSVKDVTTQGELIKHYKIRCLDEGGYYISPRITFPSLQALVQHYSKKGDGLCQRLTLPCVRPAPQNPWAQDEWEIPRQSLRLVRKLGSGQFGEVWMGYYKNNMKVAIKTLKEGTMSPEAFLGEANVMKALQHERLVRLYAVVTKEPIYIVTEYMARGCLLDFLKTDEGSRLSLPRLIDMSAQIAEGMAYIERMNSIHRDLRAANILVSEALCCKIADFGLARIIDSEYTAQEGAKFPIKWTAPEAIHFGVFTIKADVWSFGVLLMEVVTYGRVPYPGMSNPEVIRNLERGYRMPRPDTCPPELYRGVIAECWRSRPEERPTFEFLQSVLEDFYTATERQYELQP
UniProt P15056, whole entry, looked up: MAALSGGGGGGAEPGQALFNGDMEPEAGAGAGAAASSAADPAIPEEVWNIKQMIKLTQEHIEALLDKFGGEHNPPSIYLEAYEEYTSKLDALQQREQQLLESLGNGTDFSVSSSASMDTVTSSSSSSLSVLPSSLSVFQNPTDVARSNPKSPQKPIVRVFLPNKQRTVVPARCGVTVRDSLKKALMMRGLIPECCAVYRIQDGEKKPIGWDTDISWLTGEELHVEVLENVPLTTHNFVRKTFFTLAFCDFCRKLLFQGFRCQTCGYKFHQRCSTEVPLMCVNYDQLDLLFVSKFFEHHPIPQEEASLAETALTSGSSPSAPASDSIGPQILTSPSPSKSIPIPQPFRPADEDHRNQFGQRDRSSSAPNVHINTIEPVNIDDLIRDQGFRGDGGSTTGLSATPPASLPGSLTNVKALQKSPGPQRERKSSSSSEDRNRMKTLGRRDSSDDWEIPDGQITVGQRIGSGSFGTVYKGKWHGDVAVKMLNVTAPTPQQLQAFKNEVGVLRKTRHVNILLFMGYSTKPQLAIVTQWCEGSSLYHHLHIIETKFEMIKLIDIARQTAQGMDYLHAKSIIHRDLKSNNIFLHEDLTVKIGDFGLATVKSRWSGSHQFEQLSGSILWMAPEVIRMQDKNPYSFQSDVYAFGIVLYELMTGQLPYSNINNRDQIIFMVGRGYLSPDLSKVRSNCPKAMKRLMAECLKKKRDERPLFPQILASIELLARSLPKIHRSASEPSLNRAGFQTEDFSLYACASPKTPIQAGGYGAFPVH
UniProt Q06187: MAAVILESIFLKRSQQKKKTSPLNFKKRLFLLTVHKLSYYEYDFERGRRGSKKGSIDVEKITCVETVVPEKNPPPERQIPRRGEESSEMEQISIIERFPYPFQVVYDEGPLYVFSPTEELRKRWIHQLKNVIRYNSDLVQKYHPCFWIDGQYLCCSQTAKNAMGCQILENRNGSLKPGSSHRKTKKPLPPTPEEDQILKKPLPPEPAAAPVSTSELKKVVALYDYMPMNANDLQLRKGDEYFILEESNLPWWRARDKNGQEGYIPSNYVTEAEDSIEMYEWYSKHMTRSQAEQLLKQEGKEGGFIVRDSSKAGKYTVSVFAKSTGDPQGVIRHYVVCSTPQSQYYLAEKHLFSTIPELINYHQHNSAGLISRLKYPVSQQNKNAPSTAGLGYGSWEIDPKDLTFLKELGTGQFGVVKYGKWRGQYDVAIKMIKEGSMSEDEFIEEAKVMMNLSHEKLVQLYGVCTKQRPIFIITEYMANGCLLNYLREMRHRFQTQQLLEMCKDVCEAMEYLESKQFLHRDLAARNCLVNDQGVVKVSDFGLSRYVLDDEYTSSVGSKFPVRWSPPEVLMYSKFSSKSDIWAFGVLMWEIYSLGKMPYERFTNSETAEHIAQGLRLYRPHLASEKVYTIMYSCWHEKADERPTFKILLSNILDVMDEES
UniProt Q00526: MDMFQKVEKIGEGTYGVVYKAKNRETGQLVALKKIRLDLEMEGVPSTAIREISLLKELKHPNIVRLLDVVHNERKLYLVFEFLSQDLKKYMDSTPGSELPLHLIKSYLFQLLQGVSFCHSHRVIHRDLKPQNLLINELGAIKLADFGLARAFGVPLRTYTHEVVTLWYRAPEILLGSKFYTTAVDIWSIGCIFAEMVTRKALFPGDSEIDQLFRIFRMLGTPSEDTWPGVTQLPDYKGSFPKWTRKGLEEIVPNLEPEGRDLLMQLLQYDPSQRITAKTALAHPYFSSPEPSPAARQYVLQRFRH
UniProt P11802: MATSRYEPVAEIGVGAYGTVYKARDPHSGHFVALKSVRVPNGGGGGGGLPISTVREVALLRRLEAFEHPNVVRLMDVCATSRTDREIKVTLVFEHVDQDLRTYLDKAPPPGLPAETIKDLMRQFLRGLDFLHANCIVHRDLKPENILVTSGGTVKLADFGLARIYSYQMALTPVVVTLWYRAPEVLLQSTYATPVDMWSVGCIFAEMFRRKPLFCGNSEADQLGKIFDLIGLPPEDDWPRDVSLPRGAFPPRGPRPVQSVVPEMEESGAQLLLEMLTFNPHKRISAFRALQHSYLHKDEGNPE
UniProt Q00535, whole entry, looked up: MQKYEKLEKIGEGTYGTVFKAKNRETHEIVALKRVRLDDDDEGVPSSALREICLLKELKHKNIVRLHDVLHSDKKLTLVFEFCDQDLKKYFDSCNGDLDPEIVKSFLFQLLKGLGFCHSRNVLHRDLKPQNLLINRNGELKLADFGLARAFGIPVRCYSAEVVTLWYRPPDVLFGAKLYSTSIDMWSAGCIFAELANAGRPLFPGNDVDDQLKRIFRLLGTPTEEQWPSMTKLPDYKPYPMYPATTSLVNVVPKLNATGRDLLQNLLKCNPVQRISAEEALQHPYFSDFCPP

Measured: kinase-Nluc reporter destabilization hit call

Nc1ccc(Sc2nc3ccccc3s2)c(Cl)c1 [KRAS inhibitor-9] (10 µM)
inactive: ABL1 = 0 | AKT1 = 0 | ALK 0 | ARAF 0 | AURKA 0 | AURKB 0 | AURKC 0 | BLK 0 | BMX 0 | BRAF 0 | BRAF_V600E 0 | BTK 0 | CAMK2A 0 | CAMK2G 0 | CDK10 = 0 | CDK2 = 0 | CDK3 = 0 | CDK4 = 0 | CDK5 = 0 | CDK6 = 0

CN1CCN(Cc2ccc(-c3cn(C4CCC(O)CC4)c4nc(NCCC5CC5)ncc34)cc2)CC1 (stereo not given) (2.5 µM)
inactive: ABL1 = 0 | AKT1 = 0 | ALK 0 | ARAF 0 | AURKA 0 | AURKB 0 | AURKC 0 | BLK 0 | BMX 0 | BRAF 0 | BRAF_V600E 0 | BTK 0 | CAMK2A 0 | CAMK2G 0 | CDK10 = 0 | CDK2 = 0 | CDK3 = 0 | CDK4 = 0 | CDK5 = 0 | CDK6 = 0

CC1=C(C#N)C(c2ccc3[nH]nc(C)c3c2)C(C#N)=C(C)N1 (10 µM)
inactive: ABL1 = 0 | AKT1 = 0 | ALK 0 | ARAF 0 | AURKA 0 | AURKB 0 | AURKC 0 | BLK 0 | BMX 0 | BRAF 0 | BRAF_V600E 0 | BTK 0 | CAMK2A 0 | CAMK2G 0 | CDK10 = 0 | CDK2 = 0 | CDK3 = 0 | CDK4 = 0 | CDK5 = 0 | CDK6 = 0

N=C(NC(=N)N1CCCC1)Nc1ccc(OC(F)(F)F)cc1 (10 µM)
inactive: ABL1 = 0 | AKT1 = 0 | ALK 0 | ARAF 0 | AURKA 0 | AURKB 0 | AURKC 0 | BLK 0 | BMX 0 | BRAF 0 | BRAF_V600E 0 | BTK 0 | CAMK2A 0 | CAMK2G 0 | CDK10 = 0 | CDK2 = 0 | CDK3 = 0 | CDK4 = 0 | CDK5 = 0 | CDK6 = 0

CN(C)CCn1cc2cc(NC(=O)c3cccc(C(F)(F)F)n3)c(C(C)(C)O)cc2n1 (10 µM)
inactive: ABL1 = 0 | AKT1 = 0 | ALK 0 | ARAF 0 | AURKA 0 | AURKB 0 | AURKC 0 | BLK 0 | BMX 0 | BRAF 0 | BRAF_V600E 0 | BTK 0 | CAMK2A 0 | CAMK2G 0 | CDK10 = 0 | CDK2 = 0 | CDK3 = 0 | CDK4 = 0 | CDK5 = 0 | CDK6 = 0

Cc1ncc(-c2cc(F)c(O)c(F)c2)cc1-c1cc(F)c(O)c(F)c1 (10 µM)
inactive: ABL1 = 0 | AKT1 = 0 | ALK 0 | ARAF 0 | AURKA 0 | AURKB 0 | AURKC 0 | BLK 0 | BMX 0 | BRAF 0 | BRAF_V600E 0 | BTK 0 | CAMK2A 0 | CAMK2G 0 | CDK10 = 0 | CDK2 = 0 | CDK3 = 0 | CDK4 = 0 | CDK5 = 0 | CDK6 = 0

CCCCNc1ncc2c(-c3ccc(F)cc3)nn(CC3CCC(N)CC3)c2n1 (stereo not given) (2.5 µM)
inactive: ABL1 = 0 | AKT1 = 0 | ALK 0 | ARAF 0 | AURKA 0 | AURKB 0 | AURKC 0 | BLK 0 | BMX 0 | BRAF 0 | BRAF_V600E 0 | BTK 0 | CAMK2A 0 | CAMK2G 0 | CDK10 = 0 | CDK2 = 0 | CDK3 = 0 | CDK4 = 0 | CDK5 = 0 | CDK6 = 0

An excerpt from above in order of molecular weight, smallest number first.
N=C(NC(=N)N1CCCC1)Nc1ccc(OC(F)(F)F)cc1 (10 µM)
inactive: ABL1 = 0 | AKT1 = 0 | ALK 0 | ARAF 0 | AURKA 0 | AURKB 0 | AURKC 0 | BLK 0 | BMX 0 | BRAF 0 | BRAF_V600E 0 | BTK 0 | CAMK2A 0 | CAMK2G 0 | CDK10 = 0 | CDK2 = 0 | CDK3 = 0 | CDK4 = 0 | CDK5 = 0 | CDK6 = 0

Cc1ncc(-c2cc(F)c(O)c(F)c2)cc1-c1cc(F)c(O)c(F)c1 (10 µM)
inactive: ABL1 = 0 | AKT1 = 0 | ALK 0 | ARAF 0 | AURKA 0 | AURKB 0 | AURKC 0 | BLK 0 | BMX 0 | BRAF 0 | BRAF_V600E 0 | BTK 0 | CAMK2A 0 | CAMK2G 0 | CDK10 = 0 | CDK2 = 0 | CDK3 = 0 | CDK4 = 0 | CDK5 = 0 | CDK6 = 0

CCCCNc1ncc2c(-c3ccc(F)cc3)nn(CC3CCC(N)CC3)c2n1 (stereo not given) (2.5 µM)
inactive: ABL1 = 0 | AKT1 = 0 | ALK 0 | ARAF 0 | AURKA 0 | AURKB 0 | AURKC 0 | BLK 0 | BMX 0 | BRAF 0 | BRAF_V600E 0 | BTK 0 | CAMK2A 0 | CAMK2G 0 | CDK10 = 0 | CDK2 = 0 | CDK3 = 0 | CDK4 = 0 | CDK5 = 0 | CDK6 = 0

CN(C)CCn1cc2cc(NC(=O)c3cccc(C(F)(F)F)n3)c(C(C)(C)O)cc2n1 (10 µM)
inactive: ABL1 = 0 | AKT1 = 0 | ALK 0 | ARAF 0 | AURKA 0 | AURKB 0 | AURKC 0 | BLK 0 | BMX 0 | BRAF 0 | BRAF_V600E 0 | BTK 0 | CAMK2A 0 | CAMK2G 0 | CDK10 = 0 | CDK2 = 0 | CDK3 = 0 | CDK4 = 0 | CDK5 = 0 | CDK6 = 0

CN1CCN(Cc2ccc(-c3cn(C4CCC(O)CC4)c4nc(NCCC5CC5)ncc34)cc2)CC1 (stereo not given) (2.5 µM)
inactive: ABL1 = 0 | AKT1 = 0 | ALK 0 | ARAF 0 | AURKA 0 | AURKB 0 | AURKC 0 | BLK 0 | BMX 0 | BRAF 0 | BRAF_V600E 0 | BTK 0 | CAMK2A 0 | CAMK2G 0 | CDK10 = 0 | CDK2 = 0 | CDK3 = 0 | CDK4 = 0 | CDK5 = 0 | CDK6 = 0

The list continues.

Fc1ccc(Cl)cc1-c1nc(Nc2ccncc2)c2nccnc2n1 (10 µM)
inactive: ABL1 = 0 | AKT1 = 0 | ALK 0 | ARAF 0 | AURKA 0 | AURKB 0 | AURKC 0 | BLK 0 | BMX 0 | BRAF 0 | BRAF_V600E 0 | BTK 0 | CAMK2A 0 | CAMK2G 0 | CDK10 = 0 | CDK2 = 0 | CDK3 = 0 | CDK4 = 0 | CDK5 = 0 | CDK6 = 0

N#CC(=C(/N)Sc1ccccc1N)/C(C#N)=C(\N)Sc1ccccc1N (10 µM)
inactive: ABL1 = 0 | AKT1 = 0 | ALK 0 | ARAF 0 | AURKA 0 | AURKB 0 | AURKC 0 | BLK 0 | BMX 0 | BRAF 0 | BRAF_V600E 0 | BTK 0 | CAMK2A 0 | CAMK2G 0 | CDK10 = 0 | CDK2 = 0 | CDK3 = 0 | CDK4 = 0 | CDK5 = 0 | CDK6 = 0

CC(C1CC1)n1cnc2c(NCc3cccc(C(F)(F)F)c3)nc(NCCN(C)C)nc21 (stereo not given) (10 µM)
inactive: ABL1 = 0 | AKT1 = 0 | ALK 0 | ARAF 0 | AURKA 0 | AURKB 0 | AURKC 0 | BLK 0 | BMX 0 | BRAF 0 | BRAF_V600E 0 | BTK 0 | CAMK2A 0 | CAMK2G 0 | CDK10 = 0 | CDK2 = 0 | CDK3 = 0 | CDK4 = 0 | CDK5 = 0 | CDK6 = 0

Cc1cncc2cccc(S(=O)(=O)N3CCCNC[C@@H]3C)c12 [H-1152 (dihydrochloride)] (10 µM)
inactive: ABL1 = 0 | AKT1 = 0 | ALK 0 | ARAF 0 | AURKA 0 | AURKB 0 | AURKC 0 | BLK 0 | BMX 0 | BRAF 0 | BRAF_V600E 0 | BTK 0 | CAMK2A 0 | CAMK2G 0 | CDK10 = 0 | CDK2 = 0 | CDK3 = 0 | CDK4 = 0 | CDK5 = 0 | CDK6 = 0

CS(=O)(=O)c1ccc([C@@H](CC2CCCC2)C(=O)Nc2nccs2)cc1 (10 µM)
inactive: ABL1 = 0 | AKT1 = 0 | ALK 0 | ARAF 0 | AURKA 0 | AURKB 0 | AURKC 0 | BLK 0 | BMX 0 | BRAF 0 | BRAF_V600E 0 | BTK 0 | CAMK2A 0 | CAMK2G 0 | CDK10 = 0 | CDK2 = 0 | CDK3 = 0 | CDK4 = 0 | CDK5 = 0 | CDK6 = 0

C[C@@H](NC(=O)c1ncnc(N)c1Cl)c1ncc(C(=O)Nc2cc(C(F)(F)F)c(Cl)cn2)s1 (2.5 µM)
inactive: ABL1 = 0 | AKT1 = 0 | ALK 0 | ARAF 0 | AURKA 0 | AURKB 0 | AURKC 0 | BLK 0 | BMX 0 | BRAF 0 | BRAF_V600E 0 | BTK 0 | CAMK2A 0 | CAMK2G 0 | CDK10 = 0 | CDK2 = 0 | CDK3 = 0 | CDK4 = 0 | CDK5 = 0 | CDK6 = 0

CCOc1cc(=O)[nH]cc1-c1ccc(CC(=O)Nc2cc(C(C)(C)C(F)(F)F)on2)c(F)c1 (10 µM)
inactive: ABL1 = 0 | AKT1 = 0 | ALK 0 | ARAF 0 | AURKA 0 | AURKB 0 | AURKC 0 | BLK 0 | BMX 0 | BRAF 0 | BRAF_V600E 0 | BTK 0 | CAMK2A 0 | CAMK2G 0 | CDK10 = 0 | CDK2 = 0 | CDK3 = 0 | CDK4 = 0 | CDK5 = 0 | CDK6 = 0

O=C(NCc1ccn[nH]1)c1cc([C@@H]2CCNC[C@H]2COc2ccc3c(c2)OCO3)ccc1F [GRK2-IN-1 (hydrochloride)] (10 µM)
inactive: ABL1 = 0 | AKT1 = 0 | ALK 0 | ARAF 0 | AURKA 0 | AURKB 0 | AURKC 0 | BLK 0 | BMX 0 | BRAF 0 | BRAF_V600E 0 | BTK 0 | CAMK2A 0 | CAMK2G 0 | CDK10 = 0 | CDK2 = 0 | CDK3 = 0 | CDK4 = 0 | CDK5 = 0 | CDK6 = 0

O=[N+]([O-])c1ccc(-c2nc(-c3ccc(F)cc3)c(-c3ccncc3)[nH]2)cc1 (10 µM)
inactive: ABL1 = 0 | AKT1 = 0 | ALK 0 | ARAF 0 | AURKA 0 | AURKB 0 | AURKC 0 | BLK 0 | BMX 0 | BRAF 0 | BRAF_V600E 0 | BTK 0 | CAMK2A 0 | CAMK2G 0 | CDK10 = 0 | CDK2 = 0 | CDK3 = 0 | CDK4 = 0 | CDK5 = 0 | CDK6 = 0

CN(C)c1ccc(/C=C2\C(=O)Nc3ccccc32)c2ccccc12 (10 µM)
inactive: ABL1 = 0 | AKT1 = 0 | ALK 0 | ARAF 0 | AURKA 0 | AURKB 0 | AURKC 0 | BLK 0 | BMX 0 | BRAF 0 | BRAF_V600E 0 | BTK 0 | CAMK2A 0 | CAMK2G 0 | CDK10 = 0 | CDK2 = 0 | CDK3 = 0 | CDK4 = 0 | CDK5 = 0 | CDK6 = 0
